# Source: article PMC10575587
# Sequences of proteins named here, by UniProt entry; tags and fusion partners are left off. A change or cut given only in a name is not applied to a line headed by its entry.
# UniProt P63208: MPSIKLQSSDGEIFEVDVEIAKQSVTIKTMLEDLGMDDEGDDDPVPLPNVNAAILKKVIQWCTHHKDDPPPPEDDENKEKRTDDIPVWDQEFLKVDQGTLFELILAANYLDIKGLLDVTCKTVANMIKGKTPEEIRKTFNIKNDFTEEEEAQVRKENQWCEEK
# B1: PPM1B (in HEK293T lysate) (enzyme, UniProt O75688 1-479)
# chain: MGAFLDKPKTEKHNAHGAGNGLRYGLSSMQGWRVEMEDAHTAVVGIPHGLEDWSFFAVYDGHAGSRVANYCSTHLLEHITTNEDFRAAGKSGSALELSVENVKNGIRTGFLKIDEYMRNFSDLRNGMDRSGSTAVGVMISPKHIYFINCGDSRAVLYRNGQVCFSTQDHKPCNPREKERIQNAGGSVMIQRVNGSLAVSRALGDYDYKCVDGKGPTEQLVSPEPEVYEILRAEEDEFIILACDGIWDVMSNEELCEYVKSRLEVSDDLENVCNWVVDTCLHKGSRDNMSIVLVCFSNAPKVSDEAVKKDSELDKHLESRVEEIMEKSGEEGMPDLAHVMRILSAENIPNLPPGGGLAGKRNVIEAVYSRLNPHRESDGASDEAEESGSQGKLVEALRQMRINHRGNYRQLLEEMLTSYRLAKVEGEESPAEPAATATSSNSDAGNPVTMQESHTESESGLAELDSSNEDAGTKMSGEKI
# Experiments:
# [1] = molecular target: Flag-tagged SKP1^K142R/K163R (SKP1^RR) (UniProt P63208); experiment: affinity purification with mass spectrometry; anti-FLAG agarose IP of Flag-SKP1^WT or SKP1^RR from HEK293T co-transfected with HA-SUMO1, Myc-UBC9 and SLX4; eluted with 3x FLAG peptide
# Flag-tagged SKP1^WT = Flag-tagged SKP1^WT (UniProt P63208); experiment: as above
binder,measurement,setting,value
B1,binding,[1],binds
same,binding,Flag-tagged SKP1^WT,binds

# These are yes or no findings as the source states them, for the method shown. Binding seen in cells or lysates may run through a third protein. A yes stands for co-enrichment or nearness to the bait. Other partners may have been found.
